The results in this text go back to the supplement of paper PMC8426693.

Molecules are shown by their SMILES. The list shows a part of the results.

One experiment concerns SARS-CoV-2 attenuator hairpin (att HP) RNA. In words: NMR binding call after quantification (hit when 2 of 3 NMR criteria are met) (binary (1 = binding, 0 = not binding)); higher = binding. The settings on record: RNA concentration 10 µM; fragment concentration 200 µM; 293 K.
Compound `CC(C)NC(=O)N(C)Cc1cnn(C)c1` registered an NMR binding call of 0.

In turn, `Cc1nc(C)n(CCC(=O)O)n1` showed an NMR binding call of 0.

Regarding `CN(C)c1ccc(CNn2cnnc2)cc1`, the NMR binding call was 0.

For `COc1ccc(CN)cc1OC`, the NMR binding call amounted to 0.

On to `CC1CCN(CCN)CC1`, for which the NMR binding call came to 0.

`c1ccc(Nc2nncs2)cc1`: the NMR binding call turned out to be 0.

Regarding `COc1cccc2[nH]ccc12`, the NMR binding call amounted to 0.

`Cc1ncc(CNc2cncc(F)c2)s1` gave an NMR binding call of 0.

On to `CC(=O)N1CCN(CCCc2ccccc2)CC1`, for which the NMR binding call was determined as 0.

For `CCc1nnc(NC(=O)c2cnccn2)s1`, the NMR binding call came to 0.

Take `COCC(=O)Nc1nnc(C)s1`: the NMR binding call worked out at 0.

`CN1CCCC(OC(=O)c2ccco2)C1` (stereo not given) showed an NMR binding call of 0.

Consider `CS(=O)(=O)N1CCCC1CN` (stereo not given), for which the NMR binding call worked out at 0.

Consider `Cc1ccc(CNC(=O)Cc2cccs2)cc1`, for which the NMR binding call came to 0.

In turn, `CCc1ccc(C(=O)NCc2cnn(C)c2)s1` came in with an NMR binding call of 0.

In turn, `COc1cc(C(=O)O)cc(OC)c1OC` gave an NMR binding call of 0.

In the case of `O=C(NCCc1ccccc1)NC1CCCCC1`, the NMR binding call is 0.

With `Cc1nsc(N2CCCNCC2)n1`, the NMR binding call was found to be 0.

For `Cc1nnc(N2CCCCC2)s1`, the NMR binding call turned out to be 0.

`Cc1nn(C)c(C)c1CN1CCNCC1` showed an NMR binding call of 0.

For the compound `N#CCC(=O)N1CCC(Cc2ccccc2)CC1`, the NMR binding call stood at 0.

In turn, `Cc1cccc(Nc2ncnc3c2cnn3C)c1` returned an NMR binding call of 0.

`Cc1ccccc1OCC(=O)Nc1ncccn1` gave an NMR binding call of 0.

Compound `Cc1ncsc1C(=O)N1CCCNCC1.Cl.Cl` had an NMR binding call of 0.

The compound `Cc1nsc(N2CCOC(C)C2C)n1` (stereo not given) came in with an NMR binding call of 0.

In turn, `O=C(Nc1ccc(N2CCOCC2)cc1)C1CC1` returned an NMR binding call of 0.

In turn, `CC(=O)Nc1ccc(CC(N)=O)cc1` came in with an NMR binding call of 0.

In turn, `CS(=O)(=O)Nc1ccc(CN)cc1.Cl` registered an NMR binding call of 0.

As to `CCOC(=O)c1cc(-c2ccc(C)cc2)no1`, the NMR binding call was determined as 0.

Compound `NC(=O)c1cc(N2CCCC2)ccn1` gave an NMR binding call of 0.

`O=C(Cc1ccccc1)N1CCc2ccccc21` came in with an NMR binding call of 0.

`CS(=O)(=O)CC(O)c1ccccc1` (stereo not given) had an NMR binding call of 0.

Regarding `CNc1nccnc1C#N`, the NMR binding call was 0.

For `COc1ccc(C(=O)Nc2ccccc2F)cc1`, the NMR binding call was 0.

Compound `Clc1snnc1CN1CCOCC1` displayed an NMR binding call of 0.

`CCC(=O)Nc1ccc(S(N)(=O)=O)cc1` registered an NMR binding call of 0.

`N#CCN1CCN(c2cccc(Cl)c2)CC1`: the NMR binding call came to 0.

`Cc1cc2ncn(CC(N)=O)c2cc1C` gave an NMR binding call of 0.

On to `CC(=O)NC(C)c1nnc2ccccn12` (stereo not given), for which the NMR binding call was 0.

Consider `CC(=O)N1CCOC(CO)C1` (stereo not given), for which the NMR binding call is 0.

The subject of a further experiment is SARS-CoV-2 frameshift pseudoknot (PK) RNA. Described as above. The settings on record: RNA concentration 10 µM; fragment concentration 200 µM; 293 K.
Take `CC(C)NC(=O)N(C)Cc1cnn(C)c1`: the NMR binding call was 0.

As to `Cc1nc(C)n(CCC(=O)O)n1`, the NMR binding call is 0.

`CN(C)c1ccc(CNn2cnnc2)cc1`: the NMR binding call stood at 0.

For `COc1ccc(CN)cc1OC`, the NMR binding call was found to be 0.

As to `CC1CCN(CCN)CC1`, the NMR binding call amounted to 0.

In the case of `c1ccc(Nc2nncs2)cc1`, the NMR binding call is 0.

For the compound `COc1cccc2[nH]ccc12`, the NMR binding call turned out to be 0.

Regarding `Cc1ncc(CNc2cncc(F)c2)s1`, the NMR binding call worked out at 0.

Turning to `CC(=O)N1CCN(CCCc2ccccc2)CC1`, the NMR binding call was found to be 0.

As to `CCc1nnc(NC(=O)c2cnccn2)s1`, the NMR binding call was determined as 0.

With `COCC(=O)Nc1nnc(C)s1`, the NMR binding call is 0.

With `CN1CCCC(OC(=O)c2ccco2)C1` (stereo not given), the NMR binding call came out at 0.

With `CS(=O)(=O)N1CCCC1CN` (stereo not given), the NMR binding call came to 0.

As to `Cc1ccc(CNC(=O)Cc2cccs2)cc1`, the NMR binding call was 0.

Turning to `CCc1ccc(C(=O)NCc2cnn(C)c2)s1`, the NMR binding call was 0.

For `COc1cc(C(=O)O)cc(OC)c1OC`, the NMR binding call is 0.

Regarding `O=C(NCCc1ccccc1)NC1CCCCC1`, the NMR binding call worked out at 0.

In the case of `Cc1nsc(N2CCCNCC2)n1`, the NMR binding call stood at 0.

Consider `Cc1nnc(N2CCCCC2)s1`, for which the NMR binding call stood at 0.

As for `Cc1nn(C)c(C)c1CN1CCNCC1`, the NMR binding call came out at 0.

Take `N#CCC(=O)N1CCC(Cc2ccccc2)CC1`: the NMR binding call worked out at 0.

Consider `Cc1cccc(Nc2ncnc3c2cnn3C)c1`, for which the NMR binding call came out at 0.

For the compound `Cc1ccccc1OCC(=O)Nc1ncccn1`, the NMR binding call stood at 0.

`Cc1ncsc1C(=O)N1CCCNCC1.Cl.Cl`: the NMR binding call worked out at 0.

As for `Cc1nsc(N2CCOC(C)C2C)n1` (stereo not given), the NMR binding call came out at 0.

As to `O=C(Nc1ccc(N2CCOCC2)cc1)C1CC1`, the NMR binding call is 0.

As to `CC(=O)Nc1ccc(CC(N)=O)cc1`, the NMR binding call is 0.

In the case of `CS(=O)(=O)Nc1ccc(CN)cc1.Cl`, the NMR binding call worked out at 0.

Consider `CCOC(=O)c1cc(-c2ccc(C)cc2)no1`, for which the NMR binding call came to 0.

Take `NC(=O)c1cc(N2CCCC2)ccn1`: the NMR binding call was 0.

In the case of `O=C(Cc1ccccc1)N1CCc2ccccc21`, the NMR binding call came to 0.

On to `CS(=O)(=O)CC(O)c1ccccc1` (stereo not given), for which the NMR binding call came out at 0.

Take `CNc1nccnc1C#N`: the NMR binding call was 0.

In the case of `COc1ccc(C(=O)Nc2ccccc2F)cc1`, the NMR binding call was found to be 0.

For the compound `Clc1snnc1CN1CCOCC1`, the NMR binding call is 0.

On to `CCC(=O)Nc1ccc(S(N)(=O)=O)cc1`, for which the NMR binding call is 0.

Consider `N#CCN1CCN(c2cccc(Cl)c2)CC1`, for which the NMR binding call was determined as 0.

Consider `Cc1cc2ncn(CC(N)=O)c2cc1C`, for which the NMR binding call came out at 0.

Turning to `CC(=O)NC(C)c1nnc2ccccn12` (stereo not given), the NMR binding call was determined as 0.

In the case of `CC(=O)N1CCOC(CO)C1` (stereo not given), the NMR binding call was found to be 0.
